Experimental data taken from patent US4269827A, “Process and composition for reducing blood pressure” (The Massachusetts General Hospital, priority 1980, dated 1981).
Not every detail of the peptide structures is certain; ends, links or a residue may be inferred. No end group written: not given here.

System: normal monkey
Test: Blood pressure in normal monkey not deprived of sodium
Type: in vivo

In the case of “PHPFHFFVYK [I, Pro-His-Pro-Phe-His-Phe-Phe-Val-Tyr-Lys]”, the “effect on blood pressure” value is reported as “no significant effect”.
